Assay results from the supplement of paper PMC7411640.
Where a name gives a salt, the structure may show the parent alone. The list shows a part of the results. Most values lie within the scatter of the assay; repeated measurements hardly agree.

test system: MDA-MB-468; test: phospho-S6 immunofluorescence (DAPI-normalised), per-plate z-score; higher = higher phospho-S6 signal (less pathway suppression); settings: compound 1 µM; co-treatment: lapatinib 1 uM; 24 h
Experimental: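 GPCR-targeted compound library (MedChemExpress HY-L006) tested on MDA-MB-468 PTEN-null TNBC cells in 384-well plates at 0.1, 1 or 10 uM, combined with vehicle, GDC0941 450 nM or lapatinib 1 uM, for 24 h. Phospho-S6 (S240/244) immunofluorescence normalised to DAPI and expressed as a per-plate z-score; values are the mean of biological triplicates.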

SMILES | phospho-S6 immunofluorescence (z-score)
CC(C)(C)NCC(O)c1cc(O)cc(O)c1 (stereo not given) [Terbutaline (sulfate)] | 2.83
COc1cc(NC(=O)c2ccccn2)ccc1Cl | 0.94
C[C@@H](NCCCc1cccc(C(F)(F)F)c1)c1cccc2ccccc12 [Cinacalcet (hydrochloride)] | -0.53
Cc1cc2c(cc1Cl)N(C(=O)Nc1ccc(Oc3cccnc3C)nc1)CC2 | -3.04
NC(=O)CC[C@H](N)C(=O)O [L-Glutamine] | -0.31
O=C(c1ccc(F)cc1)N1CCC[C@H](c2nc(-c3ccc(F)cc3)no2)C1 | -0.26
O=C1O[C@]2(CC[C@H](C(=O)Nc3ccn(-c4ccccc4F)n3)CC2)c2cnccc21 | -0.18

same assay, conditions: compound 1 µM; co-treatment: vehicle; 24 h

SMILES | phospho-S6 immunofluorescence (z-score)
CCOC(=O)N[C@@H]1CC[C@@H]2[C@@H](C1)C[C@H]1C(=O)O[C@H](C)[C@H]1[C@H]2/C=C/c1ccc(-c2cccc(F)c2)cn1 [Vorapaxar] | -1.81
CC(C)c1noc(N2CCC(COc3ccc(-c4ccc(S(C)(=O)=O)cc4)nc3)CC2)n1 | -0.37
CC(C)NCC(O)COc1ccc(CCOCC2CC2)cc1 (stereo not given) [Betaxolol (hydrochloride)] | 0.79
CC(C)NC[C@H](O)COc1ccc(CCOCC2CC2)cc1 [Levobetaxolol (hydrochloride)] | 0.15
OC(CCN1CCCCC1)(c1ccccc1)C1CCCCC1 (stereo not given) [Trihexyphenidyl (hydrochloride)] | 0.27
Clc1cccc(COc2cncc(N3CCNCC3)n2)c1 | 0.21
Cc1c(C(=O)NN2CCCCC2)nn(-c2ccc(Cl)cc2Cl)c1-c1ccc(Cl)cc1 [Rimonabant (Hydrochloride)] | -0.39
CCOc1ccccc1OCCN[C@H](C)Cc1ccc(OC)c(S(N)(=O)=O)c1 [Tamsulosin] | -1.28
CN(C)CCOC(C)(c1ccccc1)c1ccccn1 (stereo not given) [Doxylamine (succinate)] | 0.03
COCCCN1CCC(NC(=O)c2cc(Cl)c(N)c3c2OCC3)CC1 [Prucalopride] | -0.07
Nc1nc(CC(=O)Nc2ccc(CCNC[C@H](O)c3ccccc3)cc2)cs1 [Mirabegron] | 1.07
CCNC(=O)[C@@H]1CCCN1C(=O)[C@H](CCCNC(=N)N)NC(=O)[C@H](CC(C)C)NC(=O)[C@@H](COC(C)(C)C)NC(=O)[C@H](Cc1ccc(O)cc1)NC(=O)[C@H](CO)NC(=O)[C@H](Cc1c[nH]c2ccccc12)NC(=O)[C@H](Cc1cnc[nH]1)NC(=O)[C@@H]1CCC(=O)N1 [Buserelin (Acetate)] | -0.08
CC(=O)Nc1cccc2c1c(Sc1ccc(Cl)cc1)c(C)n2CC(=O)O | -0.32
COc1nc(C)nc(Cl)c1NC1=NCCN1 [Moxonidine] | 0.23
CC(COc1ccccc1)N(CCCl)Cc1ccccc1 (stereo not given) [Phenoxybenzamine (hydrochloride)] | -0.12
CC(C)COc1ccc(CNC(=O)N(Cc2ccc(F)cc2)C2CCN(C)CC2)cc1 [Pimavanserin] | -0.04
c1ccc2c(c1)OCC(CN1CCCCC1)O2 (stereo not given) [Piperoxan (hydrochloride)] | 0.71
O=C(O[C@@H]1C[C@@H]2C[C@H]3C[C@H](C1)N2CC3=O)c1c[nH]c2ccccc12 [Dolasetron (Mesylate hydrate)] | 0.13
O=C1NCC2(CCN(CCc3ccccc3)CC2)O1 [Fenspiride (Hydrochloride)] | 0
CN(C)CCc1c[nH]c2ccc(C[C@H]3COC(=O)N3)cc12 [Zolmitriptan] | -1.25
Clc1ccc2c(c1)CCc1cccnc1C2=C1CCNCC1 [Desloratadine] | 0.04
COc1cc2c(cc1OC)CN(C(=O)[C@@H](NCc1ccncc1)C(C)(C)C)CC2 | 0.01
CN1CCCC(n2nc(Cc3ccc(Cl)cc3)c3ccccc3c2=O)CC1 (stereo not given) [Azelastine (hydrochloride)] | 0.24
CNC(=C[N+](=O)[O-])NCCSCc1csc(CN(C)C)n1 [Nizatidine] | -0.08
CN(C)CCN1C(=O)c2cccc3cc(NC(N)=O)cc(c23)C1=O | 0.29
CN1CCN(C2=Nc3ccccc3Oc3ccc(Cl)cc32)CC1 [Loxapine (succinate)] | 0.51
CCOc1nc2cccc(C(=O)OC(C)OC(=O)OC3CCCCC3)c2n1Cc1ccc(-c2ccccc2-c2nn[nH]n2)cc1 (stereo not given) [Candesartan (Cilexetil)] | -0.19
Cc1nc2n(c(=O)c1CCN1CCC(c3noc4cc(F)ccc34)CC1)CCCC2O (stereo not given) [Paliperidone] | 0.39

In another format: 7 of the compounds above
SMILES,phospho-S6 immunofluorescence (z-score)
CC(C)NC[C@H](O)COc1ccc(CCOCC2CC2)cc1 [Levobetaxolol (hydrochloride)],0.15
Clc1cccc(COc2cncc(N3CCNCC3)n2)c1,0.21
CN(C)CCOC(C)(c1ccccc1)c1ccccn1 (stereo not given) [Doxylamine (succinate)],0.03
COCCCN1CCC(NC(=O)c2cc(Cl)c(N)c3c2OCC3)CC1 [Prucalopride],-0.07
CN(C)CCc1c[nH]c2ccc(C[C@H]3COC(=O)N3)cc12 [Zolmitriptan],-1.25
CNC(=C[N+](=O)[O-])NCCSCc1csc(CN(C)C)n1 [Nizatidine],-0.08
Cc1nc2n(c(=O)c1CCN1CCC(c3noc4cc(F)ccc34)CC1)CCCC2O (stereo not given) [Paliperidone],0.39
